For at least one compound, name, drawing or mass did not settle the structure.
What was measured:
[1] = system: NRAS^MUT melanoma (Mel_PDX1); experiment: Melanoma PDX in vivo treatment, Mel_PDX1; settings: DNA-PKi 10 mg/kg/d, trametinib 3 mg/kg/d; FIG. 7C
Text: FIGS. 7A-7G. DNA-PKi co-treatment with MAPKi reduces the size of ecDNAs and CGRs and prevents acquired-resistance in vivo. FIGS. 7A to 7E: Measurements of tumor volumes (left) and body weights of mice (right) in two BRAF^V600MUT (7A and 7B) and three NRAS^MUT (7C to 7E) cutaneous melanoma PDX models. Vehicle or indicated treatments initiated on well-established tumors on day 33 (7A), 48 (7B), 34 (7C), 43 (7D), and 42 (7E) after tumor fragment implantation, as marked by upside down dark gray triangles. […] FIG. 7G: Average total spans of ecDNAs+CGRs specific to MEKi-treated versus MEKi+DNA-PKi-treated PDXs (background ecDNAs+CGRs detected in vehicle-treated tumors were filtered) in Mel_PDX16 (BRAFi+MEKi-treated, n=3; BRAFi+MEKi+DNA-PKi-treated, n=3), Mel_PDX27 (BRAFi+MEKi-treated, n=3; BRAFi+MEKi+DNA-PKi (8 mg/kg/day)-treated, n=3; BRAFi+MEKi+DNA-PKi (10 mg/kg/day)-treated, n=2), Mel_PDX1 (MEKi-treated, n=2; MEKi+DNA-PKi-treated, n=2), Mel_PDX2 (MEKi-treated, n=2; MEKi+DNA-PKi-treated, n=2), and Mel_PDX4 (MEKi-treated, n=2; MEKi+DNA-PKi-treated, n=3). […]
To develop PDX models, tumor fragments derived from metastatic melanoma, with approval by the local institutional review boards, were transplanted subcutaneously in sex-matched NSG mice (4-6 weeks old). […] Tumors were measured with a caliper every 2 days, and tumor volumes were calculated using the formula (length×width^2)/2. […]

p-ERK = experiment: Immunofluorescence of p-ERK in early on-treatment PDX tumors; assay type: in vivo, NSG mice; settings: Mel_PDX1, 11 days, FIG. 13E

Structure (SMILES): CC(=O)Nc1cccc(-n2c(=O)n(C3CC3)c(=O)c3c(Nc4ccc(I)cc4F)n(C)c(=O)c(C)c32)c1 [trametinib]
- effect on tumor growth [1]: only transient tumor regression
- p-ERK level in tumors (p-ERK): suppressed strongly

Source: US20260240842A1, “METHODS TO PREVENT THERAPY RESISTANCE IN MELANOMA VIA BLOCKING GENOMIC INSTABILITY” (THE REGENTS OF THE UNIVERSITY OF CALIFORNIA, priority 2022, published 2026)
